Source: PubChem BioAssay AID504786 (Drosophila RNAi Screening Center, 2011)

Test: 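Knock-downs reducing HIF reporter induction by the iron chelator DFO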 (primary screen)
Cells: Drosophila S2 cells with a stable HIF luciferase reporter
Knock-down reagent: long dsRNA against Drosophila genes, about 0.2 µg dsRNA per well of a 384-well plate
Duration: three days of knock-down, then 20 h of DFO before reading
Challenge: desferrioxamine (DFO) at 100 µM, an iron chelator that mimics hypoxia, for 20 h
Read-out: 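Firefly luciferase driven by the mouse ldh-a hypoxia-response element, measured after 20 h of 100 µM DFO; z-scores per plate, higher means more signal lost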
Scale: z-score: higher = stronger loss of HIF reporter signal
The screen tested about 21,000 reagents; this is a random part of those with a known target gene and a result. 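Primary screen; positive scores mean lost reporter signal, so the sign may be inverted from the usual convention.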 Reagents against one gene are numbered here. Further read-outs or replicates are left out here.

Knock-down of CG42397 gave: z-score, replicate 1 = -0.3.
Against Nipped-B the deposit lists z-score, replicate 1 = 0.7.
CG13386 showed z-score, replicate 1 = -0.3.
Silencing of shtd (shattered) gave: z-score, replicate 1 = 0.
prd1 (pruning defect 1) gave z-score, replicate 1 = -0.5.
Knock-down of CG10710 gave: z-score, replicate 1 = -0.2.
Knock-down of CHKov1 (CHK domain ov1) #1 came out at: z-score, replicate 1 = 0.2.
Against CHKov1 (CHK domain ov1) #2, the values are z-score, replicate 1 = 0.3.
For CHKov1 (CHK domain ov1) #3, the entry reads z-score, replicate 1 = -0.4.
After knock-down of CHKov1 (CHK domain ov1) #4, the screen gave z-score, replicate 1 = 0.
For CG14903 the deposit lists z-score, replicate 1 = -0.1.
Depletion of bgm (bubblegum) gave: z-score, replicate 1 = 0.7.
Silencing of sav (salvador) #1 came out at: z-score, replicate 1 = -0.6.
Silencing of sav (salvador) #2 gave: z-score, replicate 1 = -0.7.
Against Mal-A5 (Maltase A5), the entry reads z-score, replicate 1 = -0.3.
With knock-down of beta-Spec (beta Spectrin), the record shows z-score, replicate 1 = -0.3.
Tasp1 (Taspase 1) gave z-score, replicate 1 = -0.3.
For futsch #1, the entry reads z-score, replicate 1 = -0.2.
futsch #2 gave z-score, replicate 1 = -0.3.
Against futsch #3 the deposit lists z-score, replicate 1 = -0.2.
After knock-down of futsch #4 the results were z-score, replicate 1 = -0.2.
Depletion of CG17658 gave: z-score, replicate 1 = -0.2.
Knock-down of CG5447 came out at: z-score, replicate 1 = -0.5.
Knock-down of CG5157 came out at: z-score, replicate 1 = -0.3.
After knock-down of Jon66Cii (Jonah 66Cii), the screen gave z-score, replicate 1 = -0.4.
Against Cen (Centrocortin), the entry reads z-score, replicate 1 = -0.1.
With knock-down of CG6431 the results were z-score, replicate 1 = -0.4.

Reprinted from above for reference:
sav (salvador) #2: z-score, replicate 1 = -0.7
Mal-A5 (Maltase A5): z-score, replicate 1 = -0.3
